These are yes or no findings as the source states them, for the method shown. Binding seen in cells or lysates may run through a third protein. Where a sequence is shown, tags or fusion partners need not be part of it.
Target: T1, GST-tagged Wls-CT (residues 493-541) (UniProt Q5T9L3)
T1 sequence: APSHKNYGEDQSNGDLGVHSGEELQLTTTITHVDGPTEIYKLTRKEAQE
Assay: pull-down; GST-tagged proteins bound to glutathione sepharose beads, incubated with S-tagged proteins (bacterial lysates in PBS, 1% Triton X-100); eluted with SDS loading dye; western blot with HRP-conjugated S-tag antibody; only the target purified

binding: no binding
Substance: S-tagged C-terminal portion of WlsX (Wls-CTX) (human) (domain or fragment)

Reference: publication PMC6615345
